# Experimental data: PubChem BioAssay AID504774 (Drosophila RNAi Screening Center, 2011)
# Aim: 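Fly genes whose loss alters survival after alkylation damage to DNA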 (primary screen)
# System: Drosophila Kc167 cells
# Reagent: long dsRNA against Drosophila genes, about 0.25 µg dsRNA per well
# Time to read-out: about 6 days: 3 days knock-down, then 3 days with or without MMS
# Challenge: methyl methanesulphonate 0.004% (w/v) for 3 days after knock-down
# Read-out: 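Viability in wells given MMS, read as ATP luminescence, normalised by quantiles plate by plate and averaged across replicates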
# Reading the numbers: mean viability with MMS and viability with MMS: higher = more surviving cells after MMS
# The deposit covers about 23,000 reagents; below is a random part of those that have a named target and a result. 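Values are quantile-normalised luminescence on an arbitrary scale; higher means more cells surviving MMS.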 The numbers tell different reagents against one gene apart. A plus sign joins genes that one reagent is predicted to hit. Reagent sequences are not shown.
gene,reagent no.,mean viability with MMS,"viability with MMS, replicate 1","viability with MMS, replicate 2"
dsf (dissatisfaction),1,3.53e6,4.14e6,3.86e6
CG15514,1,3.52e6,4.01e6,4.00e6
Adgf-A2 (Adenosine deaminase-related growth factor A2),1,3.47e6,3.96e6,3.93e6
Setd3 (SET domain containing 3),1,3.49e6,4.07e6,3.86e6
Setd3 (SET domain containing 3),2,3.45e6,4.03e6,3.80e6
CG6048,1,3.55e6,4.12e6,3.95e6
CG7352,1,3.52e6,3.97e6,4.04e6
Or42b (Odorant receptor 42b),1,3.62e6,4.23e6,3.99e6
SK (small conductance calcium-activated potassium channel),1,3.44e6,4.01e6,3.81e6
SK (small conductance calcium-activated potassium channel),2,3.58e6,3.90e6,4.24e6
SK (small conductance calcium-activated potassium channel),3,3.49e6,3.76e6,4.15e6
SK (small conductance calcium-activated potassium channel),4,3.53e6,3.80e6,4.22e6
SK (small conductance calcium-activated potassium channel),5,3.57e6,4.09e6,3.99e6
SK (small conductance calcium-activated potassium channel),6,3.28e6,3.86e6,3.79e6
CG15894,1,3.61e6,4.02e6,4.17e6
CG15894,2,3.21e6,3.58e6,3.64e6
CG7130,1,3.44e6,3.77e6,4.02e6
CG13293,1,3.55e6,4.03e6,4.03e6
CG5937,1,3.51e6,3.96e6,4.01e6
CG8142,1,3.78e6,4.37e6,4.23e6
CG15452,1,3.53e6,4.01e6,4.01e6
Hsp26 (Heat shock protein 26),1,3.61e6,4.21e6,3.99e6
Cnb (Centrobin),1,3.48e6,3.88e6,4.00e6
RpL4 (Ribosomal protein L4),1,2.80e6,3.63e6,3.63e6
Cat (Catalase),1,3.33e6,3.74e6,3.74e6
CG18469,1,3.43e6,3.92e6,3.92e6
bves,1,3.49e6,3.94e6,3.99e6
bves,2,3.59e6,3.96e6,4.16e6
bves,3,3.54e6,3.96e6,4.07e6
CG11696,1,3.34e6,3.59e6,3.76e6
CheB42c (Chemosensory protein B 42c),1,3.65e6,4.18e6,4.02e6
hid (head involution defective),1,3.55e6,4.02e6,4.03e6
Tps1 (Trehalose-6-phosphate synthase 1),1,3.57e6,4.06e6,4.03e6
CG13154,1,3.41e6,3.65e6,3.90e6
CG31031 (retired record),1,3.65e6,4.16e6,4.09e6
PIG-G (Phosphatidylinositol glycan anchor biosynthesis class G),1,3.24e6,2.87e6,3.92e6
mtsh (mitoshell),1,3.47e6,3.95e6,3.91e6
Tcs6 + PIG-P,1,3.49e6,3.91e6,4.00e6
Tcs6 + PIG-P,2,3.49e6,3.97e6,3.91e6
CG6290,1,3.80e6,4.24e6,4.41e6
RPA1 (Replication protein A1),1,3.44e6,3.87e6,3.89e6
CG31870,1,3.51e6,3.98e6,4.00e6
CG7484,1,3.49e6,4.03e6,3.86e6
CG42685,1,3.65e6,4.06e6,3.95e6
CG5854,1,1.64e6,3.85e6,3.77e6
bap (bagpipe),1,1.86e6,4.07e6,3.97e6
Sec23 (Secretory 23),1,3.68e6,4.23e6,4.15e6
brp (bruchpilot),1,3.58e6,3.99e6,4.10e6
brp (bruchpilot),2,3.56e6,3.93e6,4.13e6
brp (bruchpilot),3,3.51e6,3.88e6,4.09e6
brp (bruchpilot),4,3.59e6,4.12e6,3.98e6
Rcd5 (Reduction in Cnn dots 5),1,3.74e6,4.22e6,4.25e6
Oatp58Dc (Organic anion transporting polypeptide 58Dc),1,3.63e6,4.24e6,3.90e6
wrm1 (wurmchen 1),1,3.55e6,4.07e6,3.99e6
CG5191,1,3.66e6,4.07e6,4.18e6
CG5191,2,3.56e6,4.03e6,4.03e6
CG5191,3,3.49e6,3.97e6,3.96e6
ATPCL (ATP citrate lyase),1,3.78e6,4.21e6,4.27e6
CG10650,1,3.65e6,4.19e6,4.14e6
CG4461,1,3.54e6,4.08e6,3.94e6
CG15207 (retired record),1,3.66e6,4.19e6,4.08e6
CG15207 (retired record),2,3.49e6,3.95e6,3.99e6
Jhbp16 (Juvenile hormone binding protein 16),1,3.71e6,4.21e6,4.21e6
CG7568,1,3.66e6,4.15e6,4.15e6
Cyp28d2 (Cytochrome P450 28d2),1,3.58e6,4.05e6,4.06e6
Ino80 (INO80 complex subunit),1,3.75e6,4.10e6,4.41e6
Ino80 (INO80 complex subunit),2,3.72e6,4.28e6,4.15e6
Ino80 (INO80 complex subunit),3,3.76e6,3.95e6,4.57e6
